Read-outs that look alike come from different tables or passages of the source. These are yes or no findings as the source states them, for the method shown. Binding seen in cells or lysates may run through a third protein. A yes stands for co-enrichment or nearness to the bait. Other partners may have been found.
Tests used:
[1] = biological target: GFP-Cna1 (calcineurin catalytic subunit A tagged with GFP) (C. neoformans) (UniProt O42773); assay: affinity purification with mass spectrometry; GFP-Cna1 precipitated with GFP-Trap resin from lysates of cells kept 1 h at 24°C or 37°C; 2 h at 4°C; lysis 10 mM Tris/Cl pH 7.5, 150 mM NaCl, 0.5 mM EDTA; wash with 350 mM NaCl; gel slices of about 6-100 kDa analysed by LC-MS/MS; control strain KN99a without GFP-Cna1; lysates analysed too
[2] = biological target: GFP-Cna1 (calcineurin catalytic subunit A tagged with GFP) (C. neoformans) (UniProt O42773); assay: as above; remark: listed apart in the source

Sequences of proteins named here, by UniProt entry; tags and fusion partners are left off. A change or cut given only in a name is not applied to a line headed by its entry.
UniProt O42773: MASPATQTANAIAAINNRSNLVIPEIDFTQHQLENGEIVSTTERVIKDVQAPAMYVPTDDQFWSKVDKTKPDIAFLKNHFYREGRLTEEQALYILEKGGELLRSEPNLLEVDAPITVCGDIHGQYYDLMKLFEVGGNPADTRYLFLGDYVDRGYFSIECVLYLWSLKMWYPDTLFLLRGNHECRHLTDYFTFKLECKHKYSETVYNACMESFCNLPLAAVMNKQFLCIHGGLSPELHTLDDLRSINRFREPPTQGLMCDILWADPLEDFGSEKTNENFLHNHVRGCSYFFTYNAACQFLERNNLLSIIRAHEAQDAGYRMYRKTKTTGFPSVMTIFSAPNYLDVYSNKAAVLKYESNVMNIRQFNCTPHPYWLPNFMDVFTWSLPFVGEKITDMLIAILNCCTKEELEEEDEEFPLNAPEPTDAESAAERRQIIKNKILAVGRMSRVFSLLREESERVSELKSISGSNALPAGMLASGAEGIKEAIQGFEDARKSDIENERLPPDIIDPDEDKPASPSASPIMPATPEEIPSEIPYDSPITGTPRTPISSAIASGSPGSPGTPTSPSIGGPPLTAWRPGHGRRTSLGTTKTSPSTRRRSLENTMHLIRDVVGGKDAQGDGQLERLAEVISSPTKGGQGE
UniProt J9VKE9: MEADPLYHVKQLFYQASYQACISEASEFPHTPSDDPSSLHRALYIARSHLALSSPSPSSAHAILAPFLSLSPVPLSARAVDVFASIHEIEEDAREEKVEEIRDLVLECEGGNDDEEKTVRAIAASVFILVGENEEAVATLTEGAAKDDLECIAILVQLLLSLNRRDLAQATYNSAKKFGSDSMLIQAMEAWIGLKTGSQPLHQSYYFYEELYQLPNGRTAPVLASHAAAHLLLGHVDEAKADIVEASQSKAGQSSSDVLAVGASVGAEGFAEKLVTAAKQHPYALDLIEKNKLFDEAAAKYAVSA
UniProt J9VU63: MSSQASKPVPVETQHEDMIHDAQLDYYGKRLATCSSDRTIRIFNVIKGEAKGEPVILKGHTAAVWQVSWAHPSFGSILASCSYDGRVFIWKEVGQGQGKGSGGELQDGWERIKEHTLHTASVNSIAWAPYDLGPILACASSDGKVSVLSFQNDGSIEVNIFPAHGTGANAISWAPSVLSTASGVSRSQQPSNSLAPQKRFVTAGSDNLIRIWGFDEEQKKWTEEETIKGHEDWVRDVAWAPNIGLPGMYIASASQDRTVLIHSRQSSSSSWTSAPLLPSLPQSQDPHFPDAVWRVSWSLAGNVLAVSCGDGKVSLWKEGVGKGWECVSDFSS

| binding [2] | Molecule | binding [1] |
| --- | --- | --- |
| – | COPI component Sec28 (endogenous) (from UniProt J9VKE9) | binds |
| – | COPII component Sec13 (endogenous) (from UniProt J9VU63) | binds |
| binds | alpha-trehalose-phosphate synthase, Tps1 (enzyme, UniProt Q6IVK9 1-670) MTTMSNDIPNSPTSTSFTGTFSPAATAANTAANARTSDAPSPTTSSSGPKLETSKEQRLIVVSNRLPVTISKDDNGEYHFKMSSGGLVSALSGCKKTMSFTWIGWPGKDIPMQDRETVNRRLLDEYNCYPVYLSDELADSHYNGSFSNSILWPLFHYHPGEMNFDAAHWLAYREANMRFADVVSSLVQAGDMVWVQDYHLMLLPMLLRSMITGESAQGEMVRQELGRVKEGVDDTVVKEVLKMGPGVAQAEDEGVEMLDDVEEEGGEMDVKSSPKRPHYARGMSTFQKQELVAKEKGKEGIRIGFFLHTPFPSSEIYRILPVRREILLGVLQCDLIGFHTYDYARHFLSSCTRILGLETQPNGIEFDGRYCQVGTFPIGIDPNQFIEGLQKESIVKRLRSLEARFEGVKVIIGVDRLDYIKGIPQKLQALETFLTQHPEWIGKVVLVQLAIPSRQDVEEYQDLRACVNELVGRINGRFGTVESVPIHYMHKSVPFEELTAMYALADACLVTSTRDGMNLVAYEYISSQAERHGSMILSEFAGAAQSFNGSLLINPWDVQSTADAINQALTLSPQQRKTNWQKLFNYVSKYTAEAWGVSFVNELNRLSGQRPSGPTGLAGRRKSGSLSRTSSKASIQRRKSSQSGIVTGLGAAAGAAVNWAQAQVQGGSQT | – |
